Experimental data: article PMC4156046
Results are given in words; binding and its absence hold for the method and conditions named. Binding seen in cells or lysates may run through a third protein. Some entries that bind do so weakly or less than the wild type.

Amino acid sequences for entries named in this document (tags omitted).
UniProt P63045: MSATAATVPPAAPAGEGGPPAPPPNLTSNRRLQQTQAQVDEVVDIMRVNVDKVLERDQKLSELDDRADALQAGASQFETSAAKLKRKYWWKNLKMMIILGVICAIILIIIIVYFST
UniProt Q9JHW5: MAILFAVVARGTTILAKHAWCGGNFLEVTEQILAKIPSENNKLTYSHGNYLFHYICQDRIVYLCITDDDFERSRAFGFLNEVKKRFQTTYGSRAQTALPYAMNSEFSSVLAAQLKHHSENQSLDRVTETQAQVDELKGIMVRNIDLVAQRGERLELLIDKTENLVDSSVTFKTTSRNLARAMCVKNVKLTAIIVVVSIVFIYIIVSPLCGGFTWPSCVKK

T1: Na+/K+/2Cl- co-transporter NKCC2 (rat (endogenous in thick ascending limbs)) (UniProt P55016)
T1 sequence: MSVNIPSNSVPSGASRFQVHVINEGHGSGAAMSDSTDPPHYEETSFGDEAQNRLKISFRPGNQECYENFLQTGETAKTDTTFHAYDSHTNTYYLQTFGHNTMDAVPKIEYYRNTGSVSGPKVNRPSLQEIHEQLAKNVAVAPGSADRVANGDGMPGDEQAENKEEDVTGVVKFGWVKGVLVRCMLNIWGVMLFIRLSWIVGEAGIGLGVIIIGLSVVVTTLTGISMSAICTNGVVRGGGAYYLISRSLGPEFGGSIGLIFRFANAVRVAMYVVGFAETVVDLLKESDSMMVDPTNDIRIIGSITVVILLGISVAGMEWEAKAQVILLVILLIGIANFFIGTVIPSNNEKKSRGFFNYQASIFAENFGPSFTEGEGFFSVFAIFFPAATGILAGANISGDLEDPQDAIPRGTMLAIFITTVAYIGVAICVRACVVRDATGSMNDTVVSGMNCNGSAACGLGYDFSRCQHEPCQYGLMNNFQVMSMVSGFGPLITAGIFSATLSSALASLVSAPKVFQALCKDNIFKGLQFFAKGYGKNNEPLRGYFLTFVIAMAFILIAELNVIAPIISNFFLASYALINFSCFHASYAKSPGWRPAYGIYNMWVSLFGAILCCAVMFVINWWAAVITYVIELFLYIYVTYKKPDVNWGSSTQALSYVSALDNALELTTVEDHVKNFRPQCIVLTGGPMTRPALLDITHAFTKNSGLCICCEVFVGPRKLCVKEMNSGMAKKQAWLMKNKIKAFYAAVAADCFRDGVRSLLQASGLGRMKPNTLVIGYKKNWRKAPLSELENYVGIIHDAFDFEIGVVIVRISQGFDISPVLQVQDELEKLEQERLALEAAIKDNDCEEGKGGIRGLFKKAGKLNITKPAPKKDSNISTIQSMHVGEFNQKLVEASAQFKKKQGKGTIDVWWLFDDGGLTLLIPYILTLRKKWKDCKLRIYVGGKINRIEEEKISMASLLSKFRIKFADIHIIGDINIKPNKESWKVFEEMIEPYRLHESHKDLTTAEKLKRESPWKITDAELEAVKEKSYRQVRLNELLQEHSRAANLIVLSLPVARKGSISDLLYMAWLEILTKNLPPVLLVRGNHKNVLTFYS


Experiments:
[1] = molecular target: T1, Na+/K+/2Cl- co-transporter NKCC2 (rat (endogenous in thick ascending limbs)); assay: co-IP; 200 ug rat TAL lysate; NKCC2 precipitated with 5 ug rabbit anti-NKCC2 IgG overnight at 4 C, protein G/protein A agarose; buffer 100 mM NaCl, 50 mM HEPES pH 7.5, 5 mM EDTA, 1% Triton X-100, 1% CHAPS; washes incl. 500 mM sodium; blots for VAMP2, VAMP7, VAMP8; also done on TALs treated with vehicle or the PKA agonist N6-benzoyl-cAMP (1 mM) + IBMX for 30 min
[2] = molecular target: Vesicle-associated membrane protein 2 (VAMP2) (rat (endogenous in thick ascending limbs)) (UniProt P63045); assay: co-IP; reciprocal: 100 ug rat TAL lysate; VAMP2 precipitated with 5 ug anti-VAMP2 antibody; NKCC2 found by Western blot

Molecule	binding [1]	binding [2]
Vesicle-associated membrane protein 2 (VAMP2) (from UniProt P63045 1-116)	binds	
Vesicle-associated membrane protein 8 (VAMP8) (protein, UniProt Q9WUF4 1-100) MEASGSAGNDRVRNLQSEVEGVKNIMTQNVERILARGENLDHLRNKTEDLEATSEHFKTTSQKVARKFWWKNVKMIVIICVIVLIILILIILFATGTIPT	no binding	

Next, values leading:

binding [1]	binding [2]	Molecule
no binding		Vesicle-associated membrane protein 7 (VAMP7) (from UniProt Q9JHW5 1-220)
	binds	Na+/K+/2Cl- co-transporter NKCC2 (protein, UniProt P55016 1-1095) MSVNIPSNSVPSGASRFQVHVINEGHGSGAAMSDSTDPPHYEETSFGDEAQNRLKISFRPGNQECYENFLQTGETAKTDTTFHAYDSHTNTYYLQTFGHNTMDAVPKIEYYRNTGSVSGPKVNRPSLQEIHEQLAKNVAVAPGSADRVANGDGMPGDEQAENKEEDVTGVVKFGWVKGVLVRCMLNIWGVMLFIRLSWIVGEAGIGLGVIIIGLSVVVTTLTGISMSAICTNGVVRGGGAYYLISRSLGPEFGGSIGLIFRFANAVRVAMYVVGFAETVVDLLKESDSMMVDPTNDIRIIGSITVVILLGISVAGMEWEAKAQVILLVILLIGIANFFIGTVIPSNNEKKSRGFFNYQASIFAENFGPSFTEGEGFFSVFAIFFPAATGILAGANISGDLEDPQDAIPRGTMLAIFITTVAYIGVAICVRACVVRDATGSMNDTVVSGMNCNGSAACGLGYDFSRCQHEPCQYGLMNNFQVMSMVSGFGPLITAGIFSATLSSALASLVSAPKVFQALCKDNIFKGLQFFAKGYGKNNEPLRGYFLTFVIAMAFILIAELNVIAPIISNFFLASYALINFSCFHASYAKSPGWRPAYGIYNMWVSLFGAILCCAVMFVINWWAAVITYVIELFLYIYVTYKKPDVNWGSSTQALSYVSALDNALELTTVEDHVKNFRPQCIVLTGGPMTRPALLDITHAFTKNSGLCICCEVFVGPRKLCVKEMNSGMAKKQAWLMKNKIKAFYAAVAADCFRDGVRSLLQASGLGRMKPNTLVIGYKKNWRKAPLSELENYVGIIHDAFDFEIGVVIVRISQGFDISPVLQVQDELEKLEQERLALEAAIKDNDCEEGKGGIRGLFKKAGKLNITKPAPKKDSNISTIQSMHVGEFNQKLVEASAQFKKKQGKGTIDVWWLFDDGGLTLLIPYILTLRKKWKDCKLRIYVGGKINRIEEEKISMASLLSKFRIKFADIHIIGDINIKPNKESWKVFEEMIEPYRLHESHKDLTTAEKLKRESPWKITDAELEAVKEKSYRQVRLNELLQEHSRAANLIVLSLPVARKGSISDLLYMAWLEILTKNLPPVLLVRGNHKNVLTFYS
